This is one part of the list. Some tests of the compounds listed are not included; inactive here does not mean inactive elsewhere.
test: reversal of MRP1-mediated doxorubicin resistance, pilot screen, H69AR cells, doxorubicin co-treatment (AID 601); settings: H69AR cells + 2 uM doxorubicin, CellTiter-Glo, 72 h; measured here: viability with 2 uM doxorubicin; at 10 µM; stronger effect = lower value

Compound	viability
O=C(OC1CN2CCC1CC2)C(CO)(c1ccccc1)c1ccccc1 (stereo unspecified)	77.7%

Source: PubChem BioAssay AID601 (SRMLSC, 2007)
